Patent publication US6986997B1, “Method for screening using an OAT1 transporter protein” (Fuji Bio Medix Co., Ltd., priority 1997, dated 2006)

Target: T1, rat OAT1 (Rattus norvegicus, UniProt O35956)
T1 construct: with full-length OAT1 cDNA labeled with; expressed in transfected cells; host or cells: Xenopus laevis oocytes injected with in vitro transcribed cRNA
T1 sequence (O35956 1-551): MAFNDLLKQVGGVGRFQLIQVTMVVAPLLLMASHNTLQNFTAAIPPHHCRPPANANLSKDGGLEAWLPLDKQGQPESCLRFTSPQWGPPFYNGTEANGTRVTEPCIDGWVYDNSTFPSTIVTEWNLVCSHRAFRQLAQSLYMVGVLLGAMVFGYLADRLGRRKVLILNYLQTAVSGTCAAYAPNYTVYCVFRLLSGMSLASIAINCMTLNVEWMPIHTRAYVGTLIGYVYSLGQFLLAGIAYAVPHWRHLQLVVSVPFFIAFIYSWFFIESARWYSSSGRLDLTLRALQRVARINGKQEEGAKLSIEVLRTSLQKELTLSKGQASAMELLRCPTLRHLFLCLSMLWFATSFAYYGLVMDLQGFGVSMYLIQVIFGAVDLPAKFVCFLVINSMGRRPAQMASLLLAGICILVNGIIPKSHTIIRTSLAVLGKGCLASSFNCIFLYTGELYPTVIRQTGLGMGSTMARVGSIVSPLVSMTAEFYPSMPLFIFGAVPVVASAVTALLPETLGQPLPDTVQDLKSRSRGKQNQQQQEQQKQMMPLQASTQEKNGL
Experiment: Cis-inhibition of 14C-PAH uptake in oocytes injected with rat OAT1 cRNA
Format: cell-based
Conditions: probe 14C-PAH (p-aminohippurate), 2 μM 14C-PAH, 2 mM non-labeled substance, ND96 solution, read-out: inhibition of OAT1-mediated 14C-PAH uptake

inhibition at 1 h, 2 mM: > 85%
SMILES: NS(=O)(=O)c1cc(C(=O)O)c(NCc2ccco2)cc1Cl [furosemide]
